Measurements: PMC7819943, “Rice protein-binding microarrays: a tool to detect cis-acting elements near promoter regions in rice”
The other results are listed elsewhere or left out.

Amino acid sequences for entries named in this document (tags omitted).
UniProt Q0JBA9, entry or part of it: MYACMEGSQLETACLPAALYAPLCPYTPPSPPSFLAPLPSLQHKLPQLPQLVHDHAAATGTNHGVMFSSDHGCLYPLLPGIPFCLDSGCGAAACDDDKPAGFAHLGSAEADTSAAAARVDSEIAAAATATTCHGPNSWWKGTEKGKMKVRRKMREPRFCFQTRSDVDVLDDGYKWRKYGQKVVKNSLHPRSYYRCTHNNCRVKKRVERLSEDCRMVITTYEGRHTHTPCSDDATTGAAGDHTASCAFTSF

Each sequence was assayed against OsWRKY34 (Oryza sativa, UniProt Q0JBA9 1-250) (assay: protein-binding microarray (RPBM); PBS, 2% BSA, 51.3 ng/ul salmon testes DNA, 50 uM zinc acetate, 200 nM TF, 25 C, 1 h; high values mean tight binding). Settings: protein: recombinant; tags: N-terminal polyhistidine and DsRed monomer fusion (pET32a); label: CyDye5-dUTP incorporated in the synthesized complementary strand; 3' TTTTT single-stranded linker to array surface; dsDNA, one strand shown.
In short: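 The binding signal is fluorescence intensity per array feature (arbitrary units). Readings came from an Axon 4000B scanner after a washed, 2% BSA-blocked, double-stranded custom Agilent array had been incubated for 1 h at 25 °C with 200 nM protein and 50 µM zinc acetate. The protein was a Ni–NTA-purified transcription factor fused N-terminally to polyhistidine and DsRed, expressed in E. coli BL21-CodonPlus.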

Q: How did the binding signal turn out when “ATTTGACGCCGTTACTTTTTTTAAAAATGTTTGGCCGTTCCGGAGTCACCTAGTGCAG” was run?
A: 8270 fluorescence intensity (a.u.)

Q: How did the binding signal turn out when “GTTAATTGTCATCGATTTCCCGATTCTTTTGTCAAATTTACGGAGTCACCTAGTGCAG” was run?
A: 9640 fluorescence intensity (a.u.)

Q: For “TGGTGGAGAAGCTAATGAAGAGGGTGTTTTGTTGACTATGCGGAGTCACCTAGTGCAG”, which binding signal is on record?
A: 8500 fluorescence intensity (a.u.)

Q: With “ATTAACTGGTACCTCATCGATTGAACATATATATGCATTACGGAGTCACCTAGTGCAG” as the sequence, how does the binding signal read?
A: 8820 fluorescence intensity (a.u.)

Q: For “TCGCCGGCACCGTTGACAGTTGACACCTTTCGGCCAGCCGCGGAGTCACCTAGTGCAG”, which binding signal is on record?
A: 9050 fluorescence intensity (a.u.)

Q: “ATGTCAGCCGCATCCGACCCAAAGGGCCTAAATTTCCGATCGGAGTCACCTAGTGCAG” was tested. Which binding signal did it give?
A: 8490 fluorescence intensity (a.u.)

Q: “GCCCTGACCGCGTCCGTCCCTCCACCGCATGACATCTCGGCGGAGTCACCTAGTGCAG” was tested. Which binding signal did it give?
A: 8340 fluorescence intensity (a.u.)

Q: For “GCCCGGCCCATCACCGTCACCCTCCCTCGTGTCCTCTTCACGGAGTCACCTAGTGCAG”, which binding signal is on record?
A: 8190 fluorescence intensity (a.u.)

Q: “ACACTACTCCGTTCGTTTATTTTGACGTCATCGTATCTAACGGAGTCACCTAGTGCAG” was tested. Which binding signal did it give?
A: 8700 fluorescence intensity (a.u.)

Q: How did the binding signal turn out when “TTCACTCGTTGGTCAACTTCAACATTTGTTTCACTCGTTGCGGAGTCACCTAGTGCAG” was run?
A: 9290 fluorescence intensity (a.u.)

Q: “CTTTCTTTGCGGGGAGTTTATAGTTTGGATTGAGGCGGTACGGAGTCACCTAGTGCAG” was tested. Which binding signal did it give?
A: 9230 fluorescence intensity (a.u.)

Q: With “GGCGGCATCTCGCTCTACCGCGGGTGGGGCTTCGACTCCGCGGAGTCACCTAGTGCAG” as the sequence, how does the binding signal read?
A: 12100 fluorescence intensity (a.u.)

Q: For “CACTGTACTTTTTATTTTGCTCACACTGGACCAAATTACTCGGAGTCACCTAGTGCAG”, which binding signal is on record?
A: 9300 fluorescence intensity (a.u.)

Q: With “TACGATATGCTACATGCGGCCGCATCTGTCAAACTGTCAACGGAGTCACCTAGTGCAG” as the sequence, how does the binding signal read?
A: 10700 fluorescence intensity (a.u.)

Q: With “ATCTGTTCCAAAATCACATCCTGATTGATTCGTAATAGTACGGAGTCACCTAGTGCAG” as the sequence, how does the binding signal read?
A: 8420 fluorescence intensity (a.u.)

Q: For “CAAACACACAAGCGCCCACTCGTCACACGCTATACGGCACCGGAGTCACCTAGTGCAG”, which binding signal is on record?
A: 9510 fluorescence intensity (a.u.)

Q: How did the binding signal turn out when “CTTTGACTTTTCCTGCACCCCACAAAATATCGCTTTTGATCGGAGTCACCTAGTGCAG” was run?
A: 8620 fluorescence intensity (a.u.)

Q: Which binding signal does the source give for “CTATTATAGCGTGTCGGACACTGACTCCTCCCATGTTCCTCGGAGTCACCTAGTGCAG” here?
A: 11100 fluorescence intensity (a.u.)

Q: “GCTGTATTGGTCTTGTCTCTCCTGTGTAGTGTGTGTGCACCGGAGTCACCTAGTGCAG” was tested. Which binding signal did it give?
A: 10700 fluorescence intensity (a.u.)

Q: How did the binding signal turn out when “TGTCAGACCCATACCCCTTTAACCTCATGTTTCAAACTTCCGGAGTCACCTAGTGCAG” was run?
A: 8040 fluorescence intensity (a.u.)

Q: How did the binding signal turn out when “AGGTCTTTTCCCATCTCCGCGGCCCGAAACACAAAAAACCCGGAGTCACCTAGTGCAG” was run?
A: 9260 fluorescence intensity (a.u.)

Q: With “TTGAGTTAGTCATTGCCCATTGTTCGATATGATCTTAATTCGGAGTCACCTAGTGCAG” as the sequence, how does the binding signal read?
A: 8450 fluorescence intensity (a.u.)

Q: “GTGGCTGCGGCTGCGGCTCGGCTCGGGTGGTGGGAACCGACGGAGTCACCTAGTGCAG” was tested. Which binding signal did it give?
A: 8260 fluorescence intensity (a.u.)

Q: Which binding signal does the source give for “TTCCGGGTGGTGGAGAAGGTGTAGGGGTCTCGAGGTGTTCCGGAGTCACCTAGTGCAG” here?
A: 12500 fluorescence intensity (a.u.)

Q: With “ATCTTCAATCGTGCAGCCCTATCCTTATCCTCTTCCCAACCGGAGTCACCTAGTGCAG” as the sequence, how does the binding signal read?
A: 8680 fluorescence intensity (a.u.)

Q: For “GACCTTCTGCCGACTCTCCACTGCTCTCTCATCTCTTCCGCGGAGTCACCTAGTGCAG”, which binding signal is on record?
A: 11400 fluorescence intensity (a.u.)

Q: “ACGTGCCTTGTGATTATCTTTTCTCGTACTGCGTCGTTGGCGGAGTCACCTAGTGCAG” was tested. Which binding signal did it give?
A: 8230 fluorescence intensity (a.u.)

Q: “GCCGACCGATCGGACCTTTATATACGGTCTCGTCCGATCGCGGAGTCACCTAGTGCAG” was tested. Which binding signal did it give?
A: 8570 fluorescence intensity (a.u.)

Q: How did the binding signal turn out when “GCGATGAATCTAATCAAGATTTCCTGGAACCCTCATGTATCGGAGTCACCTAGTGCAG” was run?
A: 9140 fluorescence intensity (a.u.)

Q: With “ACGGCATATCCAGATTGTCACATCCACCCAAAATCTCTTACGGAGTCACCTAGTGCAG” as the sequence, how does the binding signal read?
A: 8190 fluorescence intensity (a.u.)

Q: “ACATGAGCAAATAAACAACATGCCTCTGTTACCACACTCTCGGAGTCACCTAGTGCAG” was tested. Which binding signal did it give?
A: 8200 fluorescence intensity (a.u.)

Q: “CTAGATCAGGTTGTTAGCTTGCATGTGTTGAATTAGTGTGCGGAGTCACCTAGTGCAG” was tested. Which binding signal did it give?
A: 8720 fluorescence intensity (a.u.)

Q: With “GCGTTGAAATTTCGCGGAATTCGACCGGTTTTTGTCGGAACGGAGTCACCTAGTGCAG” as the sequence, how does the binding signal read?
A: 8230 fluorescence intensity (a.u.)

Q: For “CCACATATTAATCAGCCGCACACCGTTGCCCGCCTACCACCGGAGTCACCTAGTGCAG”, which binding signal is on record?
A: 12700 fluorescence intensity (a.u.)

Q: How did the binding signal turn out when “GTTGGTTGTCTCCTCCGCCTCGAGCCAAGACCCACACCTACGGAGTCACCTAGTGCAG” was run?
A: 8600 fluorescence intensity (a.u.)

Q: Which binding signal does the source give for “ACACCCGTCCTATGCCGGTTCATTTTTTTTTTATTTTCTCCGGAGTCACCTAGTGCAG” here?
A: 10800 fluorescence intensity (a.u.)

Q: “CGTTGACTTTTTAGTACATGTTTGACCATTCGTCTTATTCCGGAGTCACCTAGTGCAG” was tested. Which binding signal did it give?
A: 36100 fluorescence intensity (a.u.)

Q: Which binding signal does the source give for “CAATTTTAGTTCAATCTTGGGTGTTTTCGCATGGTTCTCTCGGAGTCACCTAGTGCAG” here?
A: 8180 fluorescence intensity (a.u.)

Q: With “TCTCCGGCTCCACTTCGGTCTAATCCTTCTTTCCGATGCTCGGAGTCACCTAGTGCAG” as the sequence, how does the binding signal read?
A: 8730 fluorescence intensity (a.u.)

Q: For “CCCGCCGCCAGCTTCCCGTTGACTAGGATTGTTGACCCTACGGAGTCACCTAGTGCAG”, which binding signal is on record?
A: 12400 fluorescence intensity (a.u.)

Q: How did the binding signal turn out when “GGGCACCACTACACCACCACCACTACACAGCAAGTAGTACCGGAGTCACCTAGTGCAG” was run?
A: 8690 fluorescence intensity (a.u.)

Q: How did the binding signal turn out when “TATTACTTATTTTTAATTCCGAATTTTAGCTATTTTAAAACGGAGTCACCTAGTGCAG” was run?
A: 8770 fluorescence intensity (a.u.)
